The values that follow come from the supplement of paper PMC10849652.

Chains of the proteins cited; added tags and fusions are not shown. Lines headed by an entry give the natural chain unless they say otherwise; changes in a name come on top.
UniProt Q8TBN0: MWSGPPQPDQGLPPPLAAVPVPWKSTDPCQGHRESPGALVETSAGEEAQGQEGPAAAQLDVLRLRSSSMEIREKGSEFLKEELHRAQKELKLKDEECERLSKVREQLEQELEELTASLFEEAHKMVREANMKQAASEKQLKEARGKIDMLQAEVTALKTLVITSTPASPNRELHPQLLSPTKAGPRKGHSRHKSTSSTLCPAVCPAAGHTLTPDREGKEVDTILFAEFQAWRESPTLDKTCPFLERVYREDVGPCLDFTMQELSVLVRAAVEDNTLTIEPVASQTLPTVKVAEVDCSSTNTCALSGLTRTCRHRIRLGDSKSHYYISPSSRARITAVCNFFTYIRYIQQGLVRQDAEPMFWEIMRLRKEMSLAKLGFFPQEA
UniProt P49756, whole entry, looked up: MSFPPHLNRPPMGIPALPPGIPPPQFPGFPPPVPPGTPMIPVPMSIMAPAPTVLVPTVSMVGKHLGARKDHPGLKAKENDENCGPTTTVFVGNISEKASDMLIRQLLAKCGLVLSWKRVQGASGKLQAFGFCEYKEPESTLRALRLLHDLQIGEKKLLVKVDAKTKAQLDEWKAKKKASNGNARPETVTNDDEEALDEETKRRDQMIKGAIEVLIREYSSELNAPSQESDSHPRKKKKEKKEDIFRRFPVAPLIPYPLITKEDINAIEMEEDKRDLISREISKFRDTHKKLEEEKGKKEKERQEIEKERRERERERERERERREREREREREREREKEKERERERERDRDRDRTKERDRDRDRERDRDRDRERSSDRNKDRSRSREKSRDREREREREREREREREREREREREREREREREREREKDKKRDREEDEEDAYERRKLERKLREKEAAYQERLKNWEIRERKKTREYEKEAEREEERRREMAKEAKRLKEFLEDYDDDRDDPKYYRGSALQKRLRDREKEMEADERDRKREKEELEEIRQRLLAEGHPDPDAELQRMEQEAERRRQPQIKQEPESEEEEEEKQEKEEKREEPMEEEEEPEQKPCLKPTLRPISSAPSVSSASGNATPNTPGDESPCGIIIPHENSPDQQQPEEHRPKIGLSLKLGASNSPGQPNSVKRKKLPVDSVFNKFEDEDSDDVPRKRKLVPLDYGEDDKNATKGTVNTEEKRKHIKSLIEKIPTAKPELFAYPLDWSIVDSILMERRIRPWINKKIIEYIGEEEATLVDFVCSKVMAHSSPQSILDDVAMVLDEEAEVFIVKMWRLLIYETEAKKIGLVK
UniProt Q16576, whole entry, looked up: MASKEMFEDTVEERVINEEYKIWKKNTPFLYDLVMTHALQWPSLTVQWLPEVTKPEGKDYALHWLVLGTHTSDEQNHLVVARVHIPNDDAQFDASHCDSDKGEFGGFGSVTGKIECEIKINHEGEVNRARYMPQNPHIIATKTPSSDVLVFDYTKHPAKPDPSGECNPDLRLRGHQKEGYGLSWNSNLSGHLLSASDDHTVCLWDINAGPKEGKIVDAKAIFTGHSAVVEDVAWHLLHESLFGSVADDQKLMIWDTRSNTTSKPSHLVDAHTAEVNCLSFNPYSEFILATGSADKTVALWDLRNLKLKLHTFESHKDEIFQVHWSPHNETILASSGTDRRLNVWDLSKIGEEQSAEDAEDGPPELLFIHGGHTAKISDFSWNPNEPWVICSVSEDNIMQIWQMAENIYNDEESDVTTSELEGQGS
UniProt Q96EV2: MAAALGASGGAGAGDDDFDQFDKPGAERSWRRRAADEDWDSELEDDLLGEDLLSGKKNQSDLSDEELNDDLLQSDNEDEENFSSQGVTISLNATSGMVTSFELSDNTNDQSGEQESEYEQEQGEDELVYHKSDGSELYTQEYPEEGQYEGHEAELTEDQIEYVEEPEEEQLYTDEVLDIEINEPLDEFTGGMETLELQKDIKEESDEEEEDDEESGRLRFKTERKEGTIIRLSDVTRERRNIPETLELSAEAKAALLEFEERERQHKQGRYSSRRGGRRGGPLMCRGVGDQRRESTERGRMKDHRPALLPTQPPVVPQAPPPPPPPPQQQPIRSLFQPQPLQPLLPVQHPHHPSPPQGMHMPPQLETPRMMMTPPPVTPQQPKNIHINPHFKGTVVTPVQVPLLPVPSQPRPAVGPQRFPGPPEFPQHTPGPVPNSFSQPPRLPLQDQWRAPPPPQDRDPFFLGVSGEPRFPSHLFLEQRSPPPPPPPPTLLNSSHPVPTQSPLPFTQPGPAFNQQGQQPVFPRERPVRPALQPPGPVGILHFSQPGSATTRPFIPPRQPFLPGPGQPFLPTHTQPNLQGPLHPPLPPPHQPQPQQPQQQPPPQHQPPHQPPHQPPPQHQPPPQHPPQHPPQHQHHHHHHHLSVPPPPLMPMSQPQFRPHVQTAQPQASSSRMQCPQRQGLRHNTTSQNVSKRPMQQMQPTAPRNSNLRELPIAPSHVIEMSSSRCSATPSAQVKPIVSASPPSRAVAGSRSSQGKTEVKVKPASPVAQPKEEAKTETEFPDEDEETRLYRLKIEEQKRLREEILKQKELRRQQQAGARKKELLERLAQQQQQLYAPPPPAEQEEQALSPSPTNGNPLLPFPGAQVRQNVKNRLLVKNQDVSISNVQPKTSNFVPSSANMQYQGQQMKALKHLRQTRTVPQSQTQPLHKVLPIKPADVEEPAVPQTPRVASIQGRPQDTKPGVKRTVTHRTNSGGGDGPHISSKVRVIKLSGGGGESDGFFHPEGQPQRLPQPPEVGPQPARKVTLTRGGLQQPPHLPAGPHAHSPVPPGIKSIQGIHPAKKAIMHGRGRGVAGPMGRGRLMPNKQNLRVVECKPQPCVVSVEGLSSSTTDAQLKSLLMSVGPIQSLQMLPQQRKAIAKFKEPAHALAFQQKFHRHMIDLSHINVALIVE
UniProt Q9H082: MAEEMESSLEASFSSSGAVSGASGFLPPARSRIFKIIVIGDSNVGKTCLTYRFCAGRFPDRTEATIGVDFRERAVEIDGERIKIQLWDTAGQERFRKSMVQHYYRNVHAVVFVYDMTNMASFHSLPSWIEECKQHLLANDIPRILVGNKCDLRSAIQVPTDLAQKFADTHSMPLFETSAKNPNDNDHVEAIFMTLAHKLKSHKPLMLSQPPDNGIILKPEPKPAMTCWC
UniProt P54136: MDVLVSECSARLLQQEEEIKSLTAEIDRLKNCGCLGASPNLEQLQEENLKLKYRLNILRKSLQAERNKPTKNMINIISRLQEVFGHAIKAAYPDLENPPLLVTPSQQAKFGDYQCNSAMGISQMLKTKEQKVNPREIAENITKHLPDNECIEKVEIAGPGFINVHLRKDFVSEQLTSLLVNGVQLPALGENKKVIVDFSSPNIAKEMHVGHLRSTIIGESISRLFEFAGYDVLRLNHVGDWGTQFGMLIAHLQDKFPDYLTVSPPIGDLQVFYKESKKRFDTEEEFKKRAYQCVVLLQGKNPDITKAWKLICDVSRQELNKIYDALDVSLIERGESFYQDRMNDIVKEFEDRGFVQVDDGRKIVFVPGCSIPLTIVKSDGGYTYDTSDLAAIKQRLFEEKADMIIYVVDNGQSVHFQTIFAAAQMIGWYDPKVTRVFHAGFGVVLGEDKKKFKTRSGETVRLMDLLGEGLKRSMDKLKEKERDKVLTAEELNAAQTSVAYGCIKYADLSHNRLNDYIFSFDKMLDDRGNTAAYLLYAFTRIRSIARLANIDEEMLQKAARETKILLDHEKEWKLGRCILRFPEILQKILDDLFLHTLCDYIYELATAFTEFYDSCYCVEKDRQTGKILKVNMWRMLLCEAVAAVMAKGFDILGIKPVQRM
UniProt Q5T8P6: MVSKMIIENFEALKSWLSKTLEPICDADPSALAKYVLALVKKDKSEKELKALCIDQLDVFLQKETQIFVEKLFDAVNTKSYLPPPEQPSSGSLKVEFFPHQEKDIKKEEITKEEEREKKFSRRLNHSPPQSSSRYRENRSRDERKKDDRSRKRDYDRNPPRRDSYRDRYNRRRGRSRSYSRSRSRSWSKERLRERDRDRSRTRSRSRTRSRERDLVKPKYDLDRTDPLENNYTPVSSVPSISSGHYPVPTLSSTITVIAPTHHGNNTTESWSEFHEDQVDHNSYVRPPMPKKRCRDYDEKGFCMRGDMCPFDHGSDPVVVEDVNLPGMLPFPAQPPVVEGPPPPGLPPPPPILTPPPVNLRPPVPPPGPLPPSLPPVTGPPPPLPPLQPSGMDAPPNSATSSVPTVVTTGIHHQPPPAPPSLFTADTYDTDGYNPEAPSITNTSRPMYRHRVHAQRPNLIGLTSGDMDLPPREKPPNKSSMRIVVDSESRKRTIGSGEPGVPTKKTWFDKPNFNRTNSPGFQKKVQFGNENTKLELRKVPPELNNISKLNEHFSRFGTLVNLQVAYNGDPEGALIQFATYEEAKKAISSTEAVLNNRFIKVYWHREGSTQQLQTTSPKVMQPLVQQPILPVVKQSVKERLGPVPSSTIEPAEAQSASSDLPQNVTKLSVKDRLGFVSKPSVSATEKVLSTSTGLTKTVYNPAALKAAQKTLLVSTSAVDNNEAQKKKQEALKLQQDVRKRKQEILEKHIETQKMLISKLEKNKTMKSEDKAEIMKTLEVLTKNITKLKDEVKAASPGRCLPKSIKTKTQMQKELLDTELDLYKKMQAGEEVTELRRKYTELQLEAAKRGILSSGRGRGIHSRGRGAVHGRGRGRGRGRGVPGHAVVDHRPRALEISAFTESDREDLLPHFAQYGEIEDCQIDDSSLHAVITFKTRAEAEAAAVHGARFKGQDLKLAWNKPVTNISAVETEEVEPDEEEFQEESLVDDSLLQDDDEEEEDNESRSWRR
UniProt Q9BUV8: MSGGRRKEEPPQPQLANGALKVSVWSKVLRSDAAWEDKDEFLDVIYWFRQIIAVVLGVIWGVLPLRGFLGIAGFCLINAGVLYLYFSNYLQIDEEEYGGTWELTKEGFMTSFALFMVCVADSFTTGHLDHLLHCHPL
UniProt Q9UKM9: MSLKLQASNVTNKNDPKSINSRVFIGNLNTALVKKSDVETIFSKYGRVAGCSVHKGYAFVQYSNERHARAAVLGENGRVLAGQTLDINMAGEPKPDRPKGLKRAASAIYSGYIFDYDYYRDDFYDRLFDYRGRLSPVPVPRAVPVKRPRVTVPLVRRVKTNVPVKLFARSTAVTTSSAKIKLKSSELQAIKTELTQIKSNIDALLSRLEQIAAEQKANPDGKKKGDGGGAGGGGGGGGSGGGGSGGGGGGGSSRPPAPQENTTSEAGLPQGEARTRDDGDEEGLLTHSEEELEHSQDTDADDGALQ
UniProt Q9H2M9: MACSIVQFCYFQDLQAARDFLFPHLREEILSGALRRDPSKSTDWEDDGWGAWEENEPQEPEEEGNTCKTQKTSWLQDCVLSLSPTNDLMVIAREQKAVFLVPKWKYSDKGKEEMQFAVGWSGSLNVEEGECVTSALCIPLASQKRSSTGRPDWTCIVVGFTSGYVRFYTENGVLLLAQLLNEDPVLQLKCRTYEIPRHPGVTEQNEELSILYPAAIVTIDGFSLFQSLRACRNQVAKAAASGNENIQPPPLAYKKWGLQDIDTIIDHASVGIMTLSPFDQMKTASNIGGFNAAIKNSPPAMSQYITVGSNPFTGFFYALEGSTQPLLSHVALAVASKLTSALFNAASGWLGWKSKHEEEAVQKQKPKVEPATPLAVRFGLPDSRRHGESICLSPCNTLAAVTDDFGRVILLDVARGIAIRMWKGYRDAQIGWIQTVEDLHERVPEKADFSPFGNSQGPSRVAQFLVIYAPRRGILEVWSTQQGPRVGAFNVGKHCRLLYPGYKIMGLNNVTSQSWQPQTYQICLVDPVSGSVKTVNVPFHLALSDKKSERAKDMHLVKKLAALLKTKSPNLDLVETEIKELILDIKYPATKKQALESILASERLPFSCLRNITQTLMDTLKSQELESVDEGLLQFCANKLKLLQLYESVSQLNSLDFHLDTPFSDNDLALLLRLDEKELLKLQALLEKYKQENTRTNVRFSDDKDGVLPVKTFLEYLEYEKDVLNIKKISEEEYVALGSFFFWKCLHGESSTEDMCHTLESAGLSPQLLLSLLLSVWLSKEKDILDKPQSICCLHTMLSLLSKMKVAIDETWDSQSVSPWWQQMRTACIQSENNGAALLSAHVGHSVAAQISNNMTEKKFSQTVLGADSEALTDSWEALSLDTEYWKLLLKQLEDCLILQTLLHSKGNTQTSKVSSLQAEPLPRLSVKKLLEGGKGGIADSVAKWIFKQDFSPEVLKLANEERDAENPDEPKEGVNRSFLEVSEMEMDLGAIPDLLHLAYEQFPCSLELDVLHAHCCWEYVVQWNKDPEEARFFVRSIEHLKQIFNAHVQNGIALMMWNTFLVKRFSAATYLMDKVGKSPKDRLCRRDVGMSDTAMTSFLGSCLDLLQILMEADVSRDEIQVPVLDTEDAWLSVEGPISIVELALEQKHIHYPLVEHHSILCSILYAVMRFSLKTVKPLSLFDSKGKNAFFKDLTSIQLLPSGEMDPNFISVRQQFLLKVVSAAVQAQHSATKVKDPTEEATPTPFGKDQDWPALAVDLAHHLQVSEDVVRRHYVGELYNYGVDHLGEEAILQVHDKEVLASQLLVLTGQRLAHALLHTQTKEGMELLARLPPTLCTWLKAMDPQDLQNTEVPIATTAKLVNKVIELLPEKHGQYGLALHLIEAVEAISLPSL

The list shows a part of the results. Residues, ends and D or L forms follow the SMILES beside them. *: point of attachment. Cbz = O=C(OCc1ccccc1)*

Compound in one assay: CC(C)C1=C2N=C(C=C(N2N=C1)NCC3=CC=CC=C3)NCCCCCCN
In words: log2 fold change, soluble protein after heating vs DMSO (PISA); higher = thermal stabilisation; K562 cells, 10 uM, 30 min; active = over 0.2 and 3.5 SD of the protein, either way, in both replicates (recomputed). An outline of the steps:
(§1)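 K562 cells at 2×10^6 cells/mL were treated for 30 min with 10 μM compound, and aliquots were heated for 3 min over 48°C-58°C before pooling. Extraction used PBS with 0.5% NP-40 at 4°C, and soluble protein was the supernatant after 21,000xg for 90 min, measured by TMTpro 16plex LC-MS/MS with channel sums equalised. Thermal stability values, relative to control samples and from duplicates, are log2 fold changes.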
In the case of RAB3IL1 (UniProt Q8TBN0), the log2 fold change is inactive: -0.014.

Regarding RAP2C (UniProt Q9Y3L5), the log2 fold change is inactive: 0.148.

Turning to RABGAP1L isoform 3 (UniProt Q5R372), the log2 fold change is inactive: -0.068.

Take RABGGTA (UniProt Q92696): the log2 fold change was inactive: 0.049.

RAD50 isoform 2 (UniProt Q92878): the log2 fold change was inactive: -0.002.

Regarding RAP1B (UniProt F5GZG1), the log2 fold change is inactive: 0.039.

In the case of RBM25 (UniProt P49756), the log2 fold change was inactive: 0.026.

Consider RBBP7 (UniProt Q16576), for which the log2 fold change is inactive: 0.049.

As for R3HDM4 (UniProt Q96D70), the log2 fold change was inactive: -0.034.

Take RBM33 (UniProt Q96EV2): the log2 fold change is inactive: -0.018.

As to RBM28 (UniProt Q9NW13), the log2 fold change was inactive: 0.05.

For RBBP5 isoform 2 (UniProt Q15291), the log2 fold change was inactive: -0.079.

Turning to RAB33B (UniProt Q9H082), the log2 fold change is inactive: 0.113.

Turning to RARS (UniProt P54136), the log2 fold change is active: -0.545.

RBM26 isoform 2 (UniProt Q5T8P6): the log2 fold change was inactive: -0.295.

In the case of RAD51B (UniProt O15315), the log2 fold change is inactive: -0.054.

As for RAB5IF isoform 5 (UniProt Q9BUV8), the log2 fold change was inactive: -0.187.

Consider RAB8B (UniProt Q92930), for which the log2 fold change was inactive: -0.002.

For the target RACK1 (UniProt D6RHH4), the log2 fold change is inactive: -0.038.

RALA (UniProt P11233): the log2 fold change is inactive: 0.103.

On to RAB3IL1 (UniProt E9PK89), for which the log2 fold change is inactive: -0.032.

With RABGAP1L isoform 5 (UniProt Q5R372), the log2 fold change is inactive: -0.125.

Turning to RAVER1 (UniProt E9PAU2), the log2 fold change was inactive: -0.409.

In the case of RAI14 isoform 2 (UniProt Q9P0K7), the log2 fold change is inactive: -0.056.

Take RALY (UniProt Q9UKM9): the log2 fold change was inactive: -0.101.

As for RAPGEF4 (UniProt Q8WZA2), the log2 fold change is inactive: 0.089.

Take RB1CC1 (UniProt Q8TDY2): the log2 fold change was inactive: 0.045.

As for RAB30 (UniProt Q15771), the log2 fold change is inactive: -0.107.

Take RAB11FIP1 (UniProt Q6WKZ4): the log2 fold change is inactive: -0.118.

For RB1 (UniProt P06400), the log2 fold change is active: -0.386.

In the case of RAB3GAP2 (UniProt Q9H2M9), the log2 fold change is active: -0.26.

On to RAF1 isoform 2 (UniProt P04049), for which the log2 fold change is inactive: -0.12.

Consider RALGPS2 (UniProt Q86X27), for which the log2 fold change was inactive: 0.141.

Compound in a further assay: CC(C)C[C@@H](C=O)NC(=O)[C@H](CC(C)C)NC(=O)[C@H](CC(C)C)NC(=O)OCc1ccccc1
The description is as above. An outline of the steps:
as §1
For RAB3IL1 (UniProt Q8TBN0), the log2 fold change was inactive: 0.057.

With RAP2C (UniProt Q9Y3L5), the log2 fold change is inactive: 0.048.

As for RABGAP1L isoform 3 (UniProt Q5R372), the log2 fold change was inactive: -0.034.

On to RABGGTA (UniProt Q92696), for which the log2 fold change is inactive: -0.041.

RAD50 isoform 2 (UniProt Q92878): the log2 fold change is inactive: -0.014.

For the target RBM25 (UniProt P49756), the log2 fold change is inactive: 0.057.

RBBP7 (UniProt Q16576): the log2 fold change was inactive: -0.04.

RBM33 (UniProt Q96EV2): the log2 fold change is inactive: -0.01.

Take RBM28 (UniProt Q9NW13): the log2 fold change was inactive: 0.202.

For RBBP5 isoform 2 (UniProt Q15291), the log2 fold change was inactive: 0.192.

In the case of RAB33B (UniProt Q9H082), the log2 fold change was inactive: 0.112.

Turning to RARS (UniProt P54136), the log2 fold change is inactive: 0.096.

RBM26 isoform 2 (UniProt Q5T8P6): the log2 fold change was inactive: 0.024.

As to RAB5IF isoform 5 (UniProt Q9BUV8), the log2 fold change was inactive: -0.143.

For RAB8B (UniProt Q92930), the log2 fold change is inactive: 0.046.

RALA (UniProt P11233): the log2 fold change is inactive: -0.033.

On to RAB3IL1 (UniProt E9PK89), for which the log2 fold change was inactive: 0.006.

For the target RAVER1 (UniProt E9PAU2), the log2 fold change is inactive: -0.042.

As to RAI14 isoform 2 (UniProt Q9P0K7), the log2 fold change is inactive: 0.188.

Consider RALY (UniProt Q9UKM9), for which the log2 fold change is inactive: 0.083.

As to RB1CC1 (UniProt Q8TDY2), the log2 fold change was inactive: 0.03.

With RAB30 (UniProt Q15771), the log2 fold change was inactive: 0.017.

In the case of RAB11FIP1 (UniProt Q6WKZ4), the log2 fold change was inactive: -0.004.

With RB1 (UniProt P06400), the log2 fold change was inactive: 0.032.

For RAB3GAP2 (UniProt Q9H2M9), the log2 fold change was inactive: 0.026.

On to RAF1 isoform 2 (UniProt P04049), for which the log2 fold change was inactive: 0.066.

Compound in another assay: CC(C)N(C[C@H]1O[C@@H](n2cnc3c(N)ncnc32)[C@H](O)[C@@H]1O)[C@H]1C[C@@H](CCc2nc3cc(C(C)(C)C)ccc3[nH]2)C1 [pinometostat]
The description is as above. Summed up: as §1
As to RAB3IL1 (UniProt Q8TBN0), the log2 fold change is inactive: -0.029.

As to RABGAP1L isoform 3 (UniProt Q5R372), the log2 fold change is inactive: -0.006.

As to RABGGTA (UniProt Q92696), the log2 fold change is inactive: -0.027.

With RAD50 isoform 2 (UniProt Q92878), the log2 fold change is inactive: -0.013.

With RAP1B (UniProt F5GZG1), the log2 fold change was inactive: -0.01.

Turning to RBM25 (UniProt P49756), the log2 fold change was inactive: -0.039.

In the case of RBBP7 (UniProt Q16576), the log2 fold change was inactive: -0.111.

Take RBM33 (UniProt Q96EV2): the log2 fold change was inactive: -0.01.

For the target RAB33B (UniProt Q9H082), the log2 fold change was inactive: -0.015.

For RARS (UniProt P54136), the log2 fold change is inactive: 0.32.

As to RBM26 isoform 2 (UniProt Q5T8P6), the log2 fold change was inactive: -0.022.

RAB5IF isoform 5 (UniProt Q9BUV8): the log2 fold change is inactive: -0.105.

Turning to RAB8B (UniProt Q92930), the log2 fold change was inactive: -0.091.

With RALA (UniProt P11233), the log2 fold change was inactive: -0.123.

With RAB3IL1 (UniProt E9PK89), the log2 fold change is inactive: 0.017.

As for RABGAP1L isoform 5 (UniProt Q5R372), the log2 fold change is inactive: -0.17.

RAVER1 (UniProt E9PAU2): the log2 fold change is inactive: 0.052.

In the case of RALY (UniProt Q9UKM9), the log2 fold change was inactive: 0.129.

For the target RAPGEF4 (UniProt Q8WZA2), the log2 fold change is inactive: -0.096.

RB1CC1 (UniProt Q8TDY2): the log2 fold change is inactive: -0.023.

For the target RAB30 (UniProt Q15771), the log2 fold change was inactive: -0.061.

Consider RAB11FIP1 (UniProt Q6WKZ4), for which the log2 fold change was inactive: 0.059.

For the target RB1 (UniProt P06400), the log2 fold change was inactive: -0.006.

As for RAB3GAP2 (UniProt Q9H2M9), the log2 fold change is inactive: 0.115.

RAF1 isoform 2 (UniProt P04049): the log2 fold change is inactive: 0.29.

RALGPS2 (UniProt Q86X27): the log2 fold change is inactive: 0.397.
